The supplement of paper PMC6078165
The reference is the same well before dosing, and untreated signal decays as well.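 Labels refer to human fibroblasts, largely primary: uterine (C12385, HUF), lung (H6013), bone (Hs27A), adrenal (HADF), skin (WS1), plus mammary HMF and breast cancer-associated Hs343T. Cancer lines are basal-like or mesenchymal-like triple-negative breast cancer. The paper counts as hits responses shifting over 3x the replicate standard deviation. The tissue of the other fibroblasts is not given here.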

System: HCC1143
Test: relative JC-1 red fluorescence (viability) vs pre-drug, coculture with fibroblast (fraction); higher = more viable cancer cells
Protocol: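 JC-1 labelled TNBC cells cocultured 1:1 (1,500 cells each) with CellTrace Violet stained primary or stromal fibroblasts in 384-well plates in FluoroBrite medium, treated with one of 42 anticancer drugs at 0.1, 1, 10 or 100 uM. JC-1 red fluorescence (mitochondrial integrity in cancer cells only) was read by plate reader every 8 h for 72 h. Values are normalised to each well's pre-drug value. The stock of one drug was tenfold lower, so its dose labels may be too high.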

N.N.[Cl][Pt][Cl] [Cisplatin]
relative JC-1 red fluorescence
Settings | 8 h | 16 h | 24 h | 32 h | 40 h | 48 h | 56 h | 64 h | 72 h
0.1 µM, coculture fibroblast: C12385 | 0.8258 | 0.769 | 0.713 | 0.647 | 0.5913 | 0.5622 | 0.531 | 0.5023 | 0.49053
0.1 µM, coculture fibroblast: H6013 | 0.745 | 0.674 | 0.648 | 0.641 | 0.585 | 0.584 | 0.548 | 0.526 | 0.507
0.1 µM, coculture fibroblast: H6019 | 0.801 | 0.736 | 0.696 | 0.633 | 0.594 | 0.564 | 0.515 | 0.474 | 0.435
0.1 µM, coculture fibroblast: H6076 | 0.7979 | 0.761 | 0.741 | 0.717 | 0.67036 | 0.664 | 0.638 | 0.615 | 0.622
0.1 µM, coculture fibroblast: H6231 | 0.794 | 0.784 | 0.707 | 0.59 | 0.598 | 0.566 | 0.526 | 0.492 | 0.472
0.1 µM, coculture fibroblast: HADF | 0.695 | 0.621 | 0.58 | 0.577 | 0.482 | 0.461 | 0.428 | 0.404 | 0.401
0.1 µM, coculture fibroblast: HCFa | 0.763 | 0.682 | 0.648 | 0.63 | 0.547 | 0.518 | 0.478 | 0.451 | 0.441
0.1 µM, coculture fibroblast: HCPF | 0.7863 | 0.779 | 0.735 | 0.64 | 0.6422 | 0.6202 | 0.5859 | 0.561 | 0.543
0.1 µM, coculture fibroblast: HHSteC | 0.81 | 0.716 | 0.681 | 0.644 | 0.567 | 0.533 | 0.491 | 0.463 | 0.427
0.1 µM, coculture fibroblast: HMF | 0.7762 | 0.81588 | 0.742 | 0.639 | 0.646 | 0.614 | 0.572 | 0.539 | 0.515
0.1 µM, coculture fibroblast: HPFa | 0.9175 | 0.8337 | 0.8098 | 0.716 | 0.663 | 0.632 | 0.579 | 0.532 | 0.494
0.1 µM, coculture fibroblast: HUF | 0.862 | 0.785 | 0.742 | 0.678 | 0.634 | 0.603 | 0.563 | 0.541 | 0.518
0.1 µM, coculture fibroblast: Hs5 | 0.852 | 0.833 | 0.792 | 0.775 | 0.708 | 0.682 | 0.655 | 0.627 | 0.632
0.1 µM, coculture fibroblast: Hs27A | 0.712 | 0.647 | 0.615 | 0.63 | 0.512 | 0.513 | 0.472 | 0.446 | 0.439
0.1 µM, coculture fibroblast: Hs343T | 0.8087 | 0.83 | 0.774 | 0.667 | 0.6553 | 0.627 | 0.585 | 0.561 | 0.528
0.1 µM, coculture fibroblast: WS1 | 0.799 | 0.72 | 0.661 | 0.58 | 0.517 | 0.4729 | 0.436 | 0.407 | 0.389
1 µM, coculture fibroblast: C12385 | 0.8165 | 0.748 | 0.697 | 0.646 | 0.579 | 0.547 | 0.523 | 0.478 | 0.461
1 µM, coculture fibroblast: H6013 | 0.7534 | 0.69066 | 0.6535 | 0.6354 | 0.58487 | 0.586 | 0.55 | 0.53 | 0.487
1 µM, coculture fibroblast: H6019 | 0.8075 | 0.738 | 0.705 | 0.648 | 0.608 | 0.594 | 0.551 | 0.509 | 0.474
1 µM, coculture fibroblast: H6076 | 0.818 | 0.812 | 0.798 | 0.77 | 0.732 | 0.722 | 0.703 | 0.681 | 0.683
1 µM, coculture fibroblast: H6231 | 0.833 | 0.842 | 0.802 | 0.757 | 0.74 | 0.724 | 0.689 | 0.659 | 0.644
1 µM, coculture fibroblast: HADF | 0.697 | 0.638 | 0.608 | 0.608 | 0.525 | 0.51382 | 0.479 | 0.461 | 0.444
1 µM, coculture fibroblast: HCFa | 0.757 | 0.682 | 0.64 | 0.629 | 0.547 | 0.529 | 0.487 | 0.46 | 0.434
1 µM, coculture fibroblast: HCPF | 0.805 | 0.776 | 0.737 | 0.67 | 0.66 | 0.622 | 0.6 | 0.571 | 0.563
1 µM, coculture fibroblast: HHSteC | 0.813 | 0.745 | 0.708 | 0.6727 | 0.602 | 0.59 | 0.547 | 0.525 | 0.48
1 µM, coculture fibroblast: HMF | 0.803 | 0.8244 | 0.7521 | 0.668 | 0.657 | 0.618 | 0.589 | 0.57 | 0.547
1 µM, coculture fibroblast: HPFa | 0.8845 | 0.78984 | 0.7545 | 0.656 | 0.599 | 0.576 | 0.524 | 0.488 | 0.445
1 µM, coculture fibroblast: HUF | 0.889 | 0.825 | 0.788 | 0.722 | 0.677 | 0.665 | 0.624 | 0.603 | 0.581
1 µM, coculture fibroblast: Hs5 | 0.838 | 0.85 | 0.803 | 0.764 | 0.693 | 0.661 | 0.645 | 0.627 | 0.619
1 µM, coculture fibroblast: Hs27A | 0.706 | 0.66 | 0.625 | 0.641 | 0.543 | 0.545 | 0.521 | 0.512 | 0.497
1 µM, coculture fibroblast: Hs343T | 0.8026 | 0.8131 | 0.7563 | 0.6751 | 0.6489 | 0.60451 | 0.559 | 0.5343 | 0.505
1 µM, coculture fibroblast: WS1 | 0.829 | 0.767 | 0.729 | 0.656 | 0.605 | 0.568 | 0.531 | 0.505 | 0.473
